Test results: article doi:10.1101/2020.04.06.026963
These are yes or no findings as the source states them, for the method shown. In cells and extracts the contact can be indirect. These calls come from enrichment with a bait or labelling near it, and not all partners need be listed.

Protein sequences, listed by entry. Tags and fused reporters are not part of them.
UniProt Q61286: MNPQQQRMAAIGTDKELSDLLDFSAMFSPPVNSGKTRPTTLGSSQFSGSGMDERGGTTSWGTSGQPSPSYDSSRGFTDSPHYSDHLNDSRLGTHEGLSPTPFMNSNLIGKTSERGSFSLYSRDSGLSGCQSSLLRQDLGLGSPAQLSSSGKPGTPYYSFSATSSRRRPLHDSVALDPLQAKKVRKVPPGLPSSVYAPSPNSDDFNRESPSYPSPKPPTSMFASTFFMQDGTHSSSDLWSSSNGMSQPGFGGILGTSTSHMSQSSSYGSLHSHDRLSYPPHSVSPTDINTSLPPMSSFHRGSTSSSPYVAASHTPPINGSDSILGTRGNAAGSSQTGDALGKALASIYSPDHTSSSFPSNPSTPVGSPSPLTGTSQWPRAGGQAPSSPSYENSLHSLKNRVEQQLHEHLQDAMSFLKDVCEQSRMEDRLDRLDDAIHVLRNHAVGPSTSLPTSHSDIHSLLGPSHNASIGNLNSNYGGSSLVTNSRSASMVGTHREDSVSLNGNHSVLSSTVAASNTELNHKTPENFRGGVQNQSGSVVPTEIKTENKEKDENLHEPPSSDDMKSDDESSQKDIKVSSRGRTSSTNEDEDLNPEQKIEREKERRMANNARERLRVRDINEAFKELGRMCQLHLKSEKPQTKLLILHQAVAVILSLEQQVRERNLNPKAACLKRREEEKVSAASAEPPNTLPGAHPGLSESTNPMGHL

Biological target: HEB (mouse (endogenous in Comma-Dβ)) (UniProt Q61286)
Experiment: affinity purification with mass spectrometry

B1: Inhibitor of Differentiation 4 (ID4) (protein, UniProt P41139 1-161)
chain: MKAVSPVRPSGRKAPSGCGGGELALRCLAEHGHSLGGSAAAAAAAAAARCKAAEAAADEPALCLQCDMNDCYSRLRRLVPTIPPNKKVSKVEILQHVIDYILDLQLALETHPALLRQPPPPAPPLHPAGACPVAPPRTPLTALNTDPAGAVNKQGDSILCR
Question: B1 was tested. Which binding did it give?
Answer: binds
